Like-named read-outs stand apart in the source and are kept apart here. These are yes or no findings as the source states them, for the method shown. Binding seen in cells or lysates may run through a third protein. A yes stands for co-enrichment or nearness to the bait. Other partners may have been found. Tags and fused reporters may be left off the sequences shown.
Legend:
Experiment in all cases: proximity labelling
[1] = target: T1, APEX-tagged HspB5-STD/RG (human) (UniProt P02511)
T1 sequence: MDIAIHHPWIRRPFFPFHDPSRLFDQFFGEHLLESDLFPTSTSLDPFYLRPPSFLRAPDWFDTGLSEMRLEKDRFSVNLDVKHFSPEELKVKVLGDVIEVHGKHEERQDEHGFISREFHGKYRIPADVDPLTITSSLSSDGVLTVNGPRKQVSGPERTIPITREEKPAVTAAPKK

Chains of the proteins cited; added tags and fusions are not shown.
UniProt Q99871: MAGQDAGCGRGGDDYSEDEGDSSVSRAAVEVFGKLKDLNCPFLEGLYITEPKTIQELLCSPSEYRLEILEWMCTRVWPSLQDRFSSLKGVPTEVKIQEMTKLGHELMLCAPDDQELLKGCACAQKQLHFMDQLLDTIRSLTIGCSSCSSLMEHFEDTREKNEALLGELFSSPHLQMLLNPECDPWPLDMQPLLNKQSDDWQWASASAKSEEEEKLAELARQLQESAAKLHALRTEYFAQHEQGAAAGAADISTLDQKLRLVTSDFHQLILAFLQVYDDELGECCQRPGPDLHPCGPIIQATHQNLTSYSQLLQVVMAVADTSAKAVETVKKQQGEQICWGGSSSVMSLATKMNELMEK
UniProt P47929: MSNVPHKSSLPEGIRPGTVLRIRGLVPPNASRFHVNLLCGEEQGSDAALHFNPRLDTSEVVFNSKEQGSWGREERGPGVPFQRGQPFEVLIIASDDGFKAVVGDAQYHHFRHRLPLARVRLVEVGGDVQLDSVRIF
UniProt O95817: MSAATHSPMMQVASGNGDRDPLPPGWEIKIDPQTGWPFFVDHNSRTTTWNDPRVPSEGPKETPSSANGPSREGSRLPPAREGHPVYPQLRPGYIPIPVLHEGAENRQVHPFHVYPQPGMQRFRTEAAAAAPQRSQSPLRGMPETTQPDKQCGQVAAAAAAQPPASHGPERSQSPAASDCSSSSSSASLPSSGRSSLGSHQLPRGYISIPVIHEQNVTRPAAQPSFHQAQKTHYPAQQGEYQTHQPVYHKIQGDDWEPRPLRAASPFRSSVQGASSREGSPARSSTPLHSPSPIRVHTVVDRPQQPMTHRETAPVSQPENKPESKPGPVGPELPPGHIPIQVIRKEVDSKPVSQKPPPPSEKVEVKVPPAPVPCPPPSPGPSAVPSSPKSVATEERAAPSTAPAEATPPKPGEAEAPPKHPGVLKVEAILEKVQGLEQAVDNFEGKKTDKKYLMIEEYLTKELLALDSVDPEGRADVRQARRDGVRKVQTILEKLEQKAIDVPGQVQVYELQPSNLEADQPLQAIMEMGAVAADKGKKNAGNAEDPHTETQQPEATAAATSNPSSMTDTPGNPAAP
UniProt Q9NT62: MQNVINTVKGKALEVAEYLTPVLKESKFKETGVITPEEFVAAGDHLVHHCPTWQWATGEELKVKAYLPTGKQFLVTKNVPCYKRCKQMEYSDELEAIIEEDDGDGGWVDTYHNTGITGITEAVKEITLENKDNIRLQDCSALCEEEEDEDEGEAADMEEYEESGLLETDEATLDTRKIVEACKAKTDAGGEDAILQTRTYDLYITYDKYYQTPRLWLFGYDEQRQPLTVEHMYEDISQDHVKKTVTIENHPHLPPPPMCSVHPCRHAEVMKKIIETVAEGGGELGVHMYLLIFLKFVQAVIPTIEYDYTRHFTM

[2] = target: T2, APEX-tagged HspB2 (human) (UniProt Q16082)
T2 sequence: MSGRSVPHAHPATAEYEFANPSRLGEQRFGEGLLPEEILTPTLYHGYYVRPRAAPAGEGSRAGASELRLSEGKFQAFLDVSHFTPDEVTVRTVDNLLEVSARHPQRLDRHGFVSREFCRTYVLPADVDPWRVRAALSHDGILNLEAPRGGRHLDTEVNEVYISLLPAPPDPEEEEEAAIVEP

[3] = target: T2, APEX-tagged HspB2 (human); remark: listed apart in the source
[4] = target: T2, APEX-tagged HspB2 (human); remark: listed apart in the source
[5] = target: T2, APEX-tagged HspB2 (human); remark: listed apart in the source

SQSTM1 (from UniProt Q13501 1-440)
binding [1]: binds | binding [2]: binds

HAUS7 (from UniProt Q99871 1-358)
binding [3]: binds | binding [2]: binds

LGALS7 (from UniProt P47929 1-136)
binding [2]: binds

BAG3 (from UniProt O95817 1-575)
binding [4]: binds | binding [1]: binds | binding [2]: binds

ATG3 (from UniProt Q9NT62 1-314)
binding [2]: binds

B1: MEA1 (protein, UniProt Q16626 1-185)
chain: MGPERHLSGAPARMATVVLGGDTMGPERIFPNQTEELGHQGPSEGTGDWSSEEPEEEQEETGSGPAGYSYQPLNQDPEQEEVELAPVGDGDVVADIQDRIQALGLHLPDPPLESEDEDEEGATALNNHSSIPMDPEHVELVKRTMAGVSLPAPGVPAWAREISDAQWEDVVQKALQARQASPAWK
binding [5]: binds

B2: HspB3 (protein, UniProt Q12988 1-150)
chain: MAKIILRHLIEIPVRYQEEFEARGLEDCRLDHALYALPGPTIVDLRKTRAAQSPPVDSAAETPPREGKSHFQILLDVVQFLPEDIIIQTFEGWLLIKAQHGTRMDEHGFISRSFTRQYKLPDGVEIKDLSAVLCHDGILVVEVKDPVGTK
binding [5]: binds
